Laboratory results: patent US9222949B2, “Salvinorin immunoassay” (priority 2009, dated 2015)

Test system: antisera generated to Immunogen I (hapten A-BTG)
Assay: competitive microtiter plate assay (ELISA) for salvinorin A and salvinorin B
Type: binding, sheep
[1] = Conjugate I, calibrator 0.16 ng/ml
[2] = Conjugate I, calibrator 0.31 ng/ml
[3] = Conjugate I, calibrator 0.63 ng/ml
[4] = Conjugate I, calibrator 1.25 ng/ml
[5] = Conjugate I, calibrator 2.50 ng/ml
[6] = Conjugate I, calibrator 5.00 ng/ml
[7] = Conjugate I, calibrator 10.00 ng/ml
[8] = Conjugate II, calibrator 0.16 ng/ml
[9] = Conjugate II, calibrator 0.31 ng/ml
[10] = Conjugate II, calibrator 0.63 ng/ml
[11] = Conjugate II, calibrator 1.25 ng/ml
[12] = Conjugate II, calibrator 2.50 ng/ml
[13] = Conjugate II, calibrator 5.00 ng/ml
[14] = Conjugate II, calibrator 10.00 ng/ml

## COC(=O)[C@@H]1C[C@H](OC(C)=O)C(=O)[C@H]2[C@@]1(C)CC[C@H]1C(=O)O[C@H](c3ccoc3)C[C@]21C [Salvinorin A]
Conjugate I, A450 of zero standard minus 2 SD, 20 replicates
  AS (analytical sensitivity): 0.013 ng/mL
[1]
  A450: 1.255
[2]
  A450: 0.970
[3]
  A450: 0.724
[4]
  A450: 0.520
[5]
  A450: 0.373
[6]
  A450: 0.272
[7]
  A450: 0.180
Conjugate I, lowest concentration with inter-assay CV <20%, 20 replicates
  FS (functional sensitivity): 0.045 ng/mL
[8]
  A450: 1.540
[9]
  A450: 1.221
[10]
  A450: 0.947
[11]
  A450: 0.716
[12]
  A450: 0.481
[13]
  A450: 0.333
[14]
  A450: 0.217

## COC(=O)C1CC(O)C(=O)C2C1(C)CCC1C(=O)OC(c3ccoc3)CC12C (stereo not drawn) [Salvinorin B]
[1]
  A450: 1.700
[2]
  A450: 1.502
[3]
  A450: 1.428
[4]
  A450: 1.275
[5]
  A450: 1.020
[6]
  A450: 0.867
[7]
  A450: 0.677
[8]
  A450: 1.993
[9]
  A450: 1.837
[10]
  A450: 1.675
[11]
  A450: 1.433
[12]
  A450: 1.189
[13]
  A450: 1.005
[14]
  A450: 0.779
